No constants are given. Whether binding was seen depends on the method and setting. In cells and extracts the contact can be indirect. Some results given as binding are weak or reduced against the parent protein; the word gives no strength.

Chains of the proteins cited; added tags and fusions are not shown.
UniProt Q9BV68: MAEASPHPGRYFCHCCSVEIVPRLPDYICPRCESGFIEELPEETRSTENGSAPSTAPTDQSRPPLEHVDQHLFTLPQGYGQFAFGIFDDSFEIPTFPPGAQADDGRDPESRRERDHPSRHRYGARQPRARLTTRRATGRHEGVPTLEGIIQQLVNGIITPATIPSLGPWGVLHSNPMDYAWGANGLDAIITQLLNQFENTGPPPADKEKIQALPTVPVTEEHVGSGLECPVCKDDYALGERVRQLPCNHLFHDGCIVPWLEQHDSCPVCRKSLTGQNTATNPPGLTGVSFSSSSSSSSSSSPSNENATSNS
UniProt P46379: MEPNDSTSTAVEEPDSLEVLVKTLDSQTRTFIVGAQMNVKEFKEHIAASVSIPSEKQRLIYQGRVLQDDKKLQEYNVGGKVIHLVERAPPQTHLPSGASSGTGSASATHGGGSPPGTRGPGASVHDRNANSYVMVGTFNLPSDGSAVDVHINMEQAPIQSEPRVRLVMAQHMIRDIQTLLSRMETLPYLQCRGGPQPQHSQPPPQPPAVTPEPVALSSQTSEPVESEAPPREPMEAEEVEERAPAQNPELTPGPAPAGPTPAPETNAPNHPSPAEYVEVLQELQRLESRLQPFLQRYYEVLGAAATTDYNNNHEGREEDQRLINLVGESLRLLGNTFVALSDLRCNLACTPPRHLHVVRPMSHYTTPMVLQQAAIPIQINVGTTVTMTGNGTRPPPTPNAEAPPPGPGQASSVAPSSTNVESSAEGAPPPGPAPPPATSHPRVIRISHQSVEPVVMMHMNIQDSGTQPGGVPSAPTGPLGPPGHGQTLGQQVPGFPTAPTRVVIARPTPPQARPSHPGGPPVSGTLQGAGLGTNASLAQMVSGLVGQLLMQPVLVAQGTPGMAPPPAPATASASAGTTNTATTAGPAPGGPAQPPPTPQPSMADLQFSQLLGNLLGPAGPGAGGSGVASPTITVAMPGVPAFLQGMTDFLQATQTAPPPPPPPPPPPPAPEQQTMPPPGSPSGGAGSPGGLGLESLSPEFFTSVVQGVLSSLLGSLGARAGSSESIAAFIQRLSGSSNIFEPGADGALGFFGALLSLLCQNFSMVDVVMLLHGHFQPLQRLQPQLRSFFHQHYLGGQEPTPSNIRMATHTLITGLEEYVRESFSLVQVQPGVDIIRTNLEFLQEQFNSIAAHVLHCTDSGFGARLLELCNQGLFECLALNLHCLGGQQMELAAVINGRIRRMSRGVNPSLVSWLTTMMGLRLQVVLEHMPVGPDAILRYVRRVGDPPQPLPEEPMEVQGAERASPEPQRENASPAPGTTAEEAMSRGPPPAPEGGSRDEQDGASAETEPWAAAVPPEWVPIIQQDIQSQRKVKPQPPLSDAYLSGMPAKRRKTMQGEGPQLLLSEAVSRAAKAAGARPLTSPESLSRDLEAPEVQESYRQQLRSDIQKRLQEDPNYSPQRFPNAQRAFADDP
UniProt Q9UMX0: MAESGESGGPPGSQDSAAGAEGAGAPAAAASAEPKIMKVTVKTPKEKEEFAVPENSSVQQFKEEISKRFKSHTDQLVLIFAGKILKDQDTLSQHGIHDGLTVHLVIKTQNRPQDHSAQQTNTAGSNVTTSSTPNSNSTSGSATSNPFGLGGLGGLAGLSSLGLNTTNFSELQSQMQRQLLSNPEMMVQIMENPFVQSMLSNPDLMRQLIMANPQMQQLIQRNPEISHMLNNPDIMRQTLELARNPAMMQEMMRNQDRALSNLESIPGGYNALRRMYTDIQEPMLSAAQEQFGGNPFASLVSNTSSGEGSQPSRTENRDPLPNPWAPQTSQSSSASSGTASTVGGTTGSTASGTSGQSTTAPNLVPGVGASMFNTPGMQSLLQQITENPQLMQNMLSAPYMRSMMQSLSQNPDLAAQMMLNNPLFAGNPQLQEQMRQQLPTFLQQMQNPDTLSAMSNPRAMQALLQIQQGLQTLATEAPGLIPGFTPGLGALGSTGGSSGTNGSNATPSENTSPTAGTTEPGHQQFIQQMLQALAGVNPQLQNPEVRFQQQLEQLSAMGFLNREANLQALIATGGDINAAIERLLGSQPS

The target of this experiment is Myc-RNF126 (wild type) (human) (UniProt Q9BV68). Briefly: co-IP; anti-Myc agarose for Myc-UBQLN1 or Myc-RNF126; HEK293T cells (wild type or BAG6 knockout) treated with 20 μM MG132 for 2 h; 50 mM Tris-HCl, 150 mM NaCl, 2 mM MgCl2, 0.05% digitonin, 4 °C, 2 h.

In the case of BAG6 (from UniProt P46379 1-1132), the binding entry is recorded as “binds”.
With “ubiquilin 1 (UBQLN1) in HEK293T lysate (from UniProt Q9UMX0 1-589)” the entry was “binds”.

The values are drawn from article PMC12005277.
